# Results from the supplement of paper PMC8728848.
# The other results are listed elsewhere or left out.
# B1: Protein L(B1-B4) (Finegoldia magna), Q51912 (protein)
# chain: KEETPETPETDSEEEVTIKANLIFANGSTQTAEFKGTFEKATSEAYAYADTLKKDNGEYTVDVADKGYTLNIKFAGKEKTPEEPKEEVTIKANLIYADGKTQTAEFKGTFEEATAEAYRYADALKKDNGEYTVDVADKGYTLNIKFAGKEKTPEEPKEEVTIKANLIYADGKTQTAEFKGTFEEATAEAYRYADLLAKENGKYTVDVADKGYTLNIKFAGKEKTPEEPKEEVTIKANLIYADGKTQTAEFKGTFAEATAEAYRYADLLAKENGKYTADLEDGGYTINIRFAG
# Tests used:
# Experiment in all cases: glycan array binding signal (z-score within array); higher = stronger binding
# Settings in all cases: glycan notation: IUPAC condensed, linker removed
# [1] = molecular target: Neu5Ac(a2-3)GalNAc
# How it was run: (§1)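 Columns mapping to the same glycan were averaged after glycan names were converted to IUPAC-condensed notation. The data come from 3228 arrays in the Consortium for Functional Glycomics database, limited to those with an available protein sequence. Binding is reported as a within-array Z-score averaged across arrays of one protein sequence and across linkers.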
# [2] = molecular target: Neu5Ac(a2-3)GalNAc(b1-4)GlcNAc
# How it was run: as §1
# [3] = molecular target: Neu5Ac(a2-3)[GalNAc(b1-4)]Gal(b1-4)Glc
# How it was run: as §1
# [4] = molecular target: Neu5Ac(a2-3)[GalNAc(b1-4)]Gal(b1-4)GlcNAc
# How it was run: as §1
# [5] = molecular target: Neu5Ac(a2-3)[GalNAc(b1-4)]Gal(b1-4)GlcNAc(b1-3)GalNAc
# How it was run: as §1
# [6] = molecular target: Neu5Ac(a2-3)[Neu5Ac(a2-6)]GalNAc
# How it was run: as §1
# [7] = molecular target: Neu5Ac(a2-6)Gal
# How it was run: as §1
# [8] = molecular target: Neu5Ac(a2-6)Gal(b1-3)GlcNAc(b1-3)[Gal(b1-4)GlcNAc(b1-6)]Gal(b1-4)Glc
# How it was run: as §1
# [9] = molecular target: Neu5Ac(a2-6)Gal(b1-4)Glc
# How it was run: as §1
# [10] = molecular target: Neu5Ac(a2-6)Gal(b1-4)GlcNAc
# How it was run: as §1
# [11] = molecular target: Neu5Ac(a2-6)Gal(b1-4)GlcNAc(b1-2)Man
# How it was run: as §1
# [12] = molecular target: Neu5Ac(a2-6)Gal(b1-4)GlcNAc(b1-2)Man(a1-3)Man(b1-4)GlcNAc(b1-4)GlcNAc
# How it was run: as §1
# [13] = molecular target: Neu5Ac(a2-6)Gal(b1-4)GlcNAc(b1-2)Man(a1-3)[Gal(b1-4)GlcNAc(b1-2)Man(a1-6)]Man(b1-4)GlcNAc(b1-4)GlcNAc
# How it was run: as §1
# [14] = molecular target: Neu5Ac(a2-6)Gal(b1-4)GlcNAc(b1-2)Man(a1-3)[GlcNAc(b1-2)Man(a1-6)]Man(b1-4)GlcNAc(b1-4)GlcNAc
# How it was run: as §1
# [15] = molecular target: Neu5Ac(a2-6)Gal(b1-4)GlcNAc(b1-2)Man(a1-3)[GlcNAc(b1-4)][Neu5Ac(a2-6)Gal(b1-4)GlcNAc(b1-2)Man(a1-6)]Man(b1-4)GlcNAc(b1-4)GlcNAc
# How it was run: as §1
# [16] = molecular target: Neu5Ac(a2-6)Gal(b1-4)GlcNAc(b1-2)Man(a1-3)[Man(a1-6)]Man(b1-4)GlcNAc(b1-4)GlcNAc
# How it was run: as §1
# [17] = molecular target: Neu5Ac(a2-6)Gal(b1-4)GlcNAc(b1-2)Man(a1-3)[Neu5Ac(a2-3)Gal(b1-4)GlcNAc(b1-2)Man(a1-6)]Man(b1-4)GlcNAc(b1-4)GlcNAc
# How it was run: as §1
# [18] = molecular target: Neu5Ac(a2-6)Gal(b1-4)GlcNAc(b1-2)Man(a1-3)[Neu5Ac(a2-6)Gal(b1-4)GlcNAc(b1-2)Man(a1-6)]Man(b1-4)GlcNAc(b1-4)GlcNAc
# How it was run: as §1
# [19] = molecular target: Neu5Ac(a2-6)Gal(b1-4)GlcNAc(b1-2)Man(a1-3)[Neu5Ac(a2-6)Gal(b1-4)GlcNAc(b1-2)Man(a1-6)]Man(b1-4)GlcNAc(b1-4)[Fuc(a1-6)]GlcNAc
# How it was run: as §1
# [20] = molecular target: Neu5Ac(a2-6)Gal(b1-4)GlcNAc(b1-2)Man(a1-6)Man(b1-4)GlcNAc(b1-4)GlcNAc
# How it was run: as §1
# [21] = molecular target: Neu5Ac(a2-6)Gal(b1-4)GlcNAc(b1-2)Man(a1-6)[Gal(b1-4)GlcNAc(b1-2)Man(a1-3)]Man(b1-4)GlcNAc(b1-4)GlcNAc
# How it was run: as §1
# [22] = molecular target: Neu5Ac(a2-6)Gal(b1-4)GlcNAc(b1-2)Man(a1-6)[GlcNAc(b1-2)Man(a1-3)]Man(b1-4)GlcNAc(b1-4)GlcNAc
# How it was run: as §1
binder,measurement,setting,value
B1,glycan array binding signal (z-score),[1],-1.04
same,glycan array binding signal (z-score),[2],-0.749
same,glycan array binding signal (z-score),[3],-0.457
same,glycan array binding signal (z-score),[4],-0.366
same,glycan array binding signal (z-score),[5],0.809
same,glycan array binding signal (z-score),[6],-0.993
same,glycan array binding signal (z-score),[7],0.04
same,glycan array binding signal (z-score),[8],0.889
same,glycan array binding signal (z-score),[9],-0.077
same,glycan array binding signal (z-score),[10],-0.849
same,glycan array binding signal (z-score),[11],-0.335
same,glycan array binding signal (z-score),[12],-0.915
same,glycan array binding signal (z-score),[13],-0.52
same,glycan array binding signal (z-score),[14],-0.563
same,glycan array binding signal (z-score),[15],-0.792
same,glycan array binding signal (z-score),[16],-0.601
same,glycan array binding signal (z-score),[17],-0.866
same,glycan array binding signal (z-score),[18],-0.562
same,glycan array binding signal (z-score),[19],2.28
same,glycan array binding signal (z-score),[20],-0.493
same,glycan array binding signal (z-score),[21],-0.889
same,glycan array binding signal (z-score),[22],-0.623

# Some of the entries above in another layout:
binder	measurement	setting	value
B1	glycan array binding signal (z-score)	[18]	-0.562
same	glycan array binding signal (z-score)	[20]	-0.493
